The list shows a part of the results. Shown are side measurements of this screen, not its main read-out; they come without a call. Most of these compounds were active or inconclusive in the main read-out, so they are no random draw. The note in brackets gives the kind of curve behind each potency; many fits are weak.
Assay: qHTS Assay to Find Inhibitors of Chronic Active B-Cell Receptor Signaling
Details: ABC-DLBCL IkBa-CBG/CBR reporter, luminescence ratio (green luciferase fused to IkBa over red control in TMD8 lymphoma cells), 4 h
How it was run: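 TMD8 human ABC-DLBCL cells with doxycycline-inducible IκBα–green luciferase fusion and unfused red luciferase, in 0.5% FBS medium; compounds up to 46 uM, 4 h at 37C. Green/red luminescence ratio, filter-overlap corrected, fitted to concentration-response curves.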

[1] = measured here: CBR red luminescence, cell number
[2] = measured here: IkBa-CBG green luminescence

In the case of `CC1CC(=O)Nc2ccccc2N1C(=O)CSc1nnnn1C(C)C` (stereo not given), the AC50 [1] is reported as 7.31 µM [rising, partial curve, poor fit].
For `COc1ccccc1N1CCN(CC(=O)c2c(C)n(C)c3ccccc23)CC1`, the AC50 [1] was 6.31 µM [rising, partial curve, poor fit].
With `CN1/C(=C\C(=O)COC(=O)C2COc3ccccc3O2)C(C)(C)c2ccccc21` (stereo not given) the AC50 [1] was 5.01 µM [rising, partial curve, poor fit].
In the case of `COc1cc(/C=N/NC(=O)c2cccnc2)cc2c1OCO2`, the AC50 [1] is reported as 11.2 µM [falling, partial curve, poor fit].
For `Nc1nc(SCc2ccc(Br)cc2)[nH]c(=O)c1-c1ccccc1`, the AC50 [1] was 5.01 µM [rising, partial curve].
In the case of `Cc1ccc2nc(-c3ccccc3O)c(Nc3ccc4c(c3)OCCO4)n2c1`, the AC50 [1] is reported as 25.9 µM [rising, single point].
With `C=C(Cl)COc1ccc2c(CC)cc(=O)oc2c1` the AC50 [1] was 2.51 µM [rising, full curve, poor fit].
For `CC(=O)CSc1nnc2cc(C)c3ccccc3n12`, the AC50 [1] was 11.2 µM [rising, partial curve].
With `COc1ccccc1-c1nc2c3ccccc3nc(=S)n2[nH]1` the AC50 [1] was 35.5 µM [rising, single point] and the AC50 [2] was 4.47 µM [falling, full curve].
In the case of `Oc1ccc2cc(Br)ccc2c1CN1CCCC1`, the AC50 [1] is reported as 10 µM [rising, partial curve].
For `COc1ccccc1CNC(=O)COC(=O)c1ccccc1-c1ccccc1`, the AC50 [1] was 23.1 µM [falling, partial curve, poor fit].
For `Cc1c(C(=O)O)cccc1-c1ccc(/C=C2\SC(=O)NC2=O)o1`, the AC50 [1] was 0.794 µM [falling, full curve].
For `O=C(NCc1nc2ccccc2[nH]1)C1=C[C@H](c2ccc(C(F)(F)F)cc2)C[C@H](OCc2ccc(CO)cc2)O1`, the AC50 [1] was 35.5 µM [falling, single point].
In the case of `Cc1[nH][nH]c(=O)c1C(c1ccc(Br)cc1)c1c(C)[nH][nH]c1=O`, the AC50 [1] is reported as 35.5 µM [falling, partial curve, poor fit].
With `O=C(NCc1cccs1)Nc1cccs1` the AC50 [1] was 10 µM [falling, partial curve, poor fit].
In the case of `COc1cc(NC(=O)COn2nnc3ccc(S(C)(=O)=O)cc32)cc(OC)c1`, the AC50 [1] is reported as 2.82 µM [falling, partial curve, poor fit].
For `COC(=O)c1cn(C(=O)c2ccc(C)cc2C)c2ccccc12`, the AC50 [1] was 6.31 µM [falling, single point].
For `Cc1ccc(-c2noc(CCC(=O)NCCCN3CCN(c4cccc(Cl)c4)CC3)n2)cc1`, the AC50 [1] was 6.31 µM [falling, partial curve, poor fit].
For `OCc1cn(-c2ccccc2)nc1-c1cc2ccccc2o1`, the AC50 [1] was 35.5 µM [falling, single point] and the AC50 [2] was 14.1 µM [rising, single point].
In the case of `COc1ccccc1C(=O)Nc1ccccc1SC(=O)c1ccccc1OC`, the AC50 [1] is reported as 35.5 µM [falling, single point] and the AC50 [2] is reported as 3.55 µM [falling, full curve, poor fit].
With `O=C(Cc1cccs1)NCc1ccco1` the AC50 [1] was 29.1 µM [rising, single point].
For `N#CC1=C(Nc2ccccc2)SC=C(c2ccc(Cl)c(Cl)c2)N=C1N1CCOCC1`, the AC50 [1] was 15.8 µM [falling, single point].
With `O=C(N/N=C/c1ccc(Cl)cc1)c1sccc1OCc1ccc(F)cc1` the AC50 [1] was 13 µM [rising, partial curve] and the AC50 [2] was 8.2 µM [falling, partial curve].
With `COc1ccc(/C=N/NC(=S)Nc2cccc(C(=O)O)c2)cc1` the AC50 [1] was 6.31 µM [falling, partial curve, poor fit].
In the case of `COc1ccccc1C1C2CCCCC2(O)CCN1CC(=O)Nc1ccccc1` (stereo not given), the AC50 [1] is reported as 31.6 µM [falling, single point].
For `COc1ccc(OC)c(NC(=O)Cc2nn(C)c(=O)c3ccccc23)c1`, the AC50 [1] was 16.4 µM [falling, partial curve].
With `N/C(=N\OC(=O)c1cccc2ccccc12)c1ccncc1` the AC50 [1] was 2.24 µM [rising, full curve, poor fit].
With `COCCNC(=S)N/N=C(\C)c1ccccc1F` the AC50 [1] was 35.5 µM [falling, single point] and the AC50 [2] was 10 µM [falling, partial curve].
With `O=C(C1CCCN(S(=O)(=O)c2ccc(Br)cc2)C1)N1CCN(Cc2ccccc2)CC1` (stereo not given) the AC50 [1] was 1.78 µM [falling, partial curve, poor fit].
With `O=C(Oc1ccccc1Cl)c1ccccc1P(=O)(O)O` the AC50 [1] was 18.4 µM [rising, partial curve, poor fit].
For `CN1CCN(C(=O)c2ccccc2NC(=O)c2cccc(Cl)c2)CC1`, the AC50 [1] was 1.78 µM [rising, partial curve, poor fit].
With `COC(=O)Nc1ccc(S(=O)(=O)Nc2cccc3ccccc23)cc1` the AC50 [1] was 10.3 µM [falling, partial curve, poor fit].
With `Cn1c(=O)c([N+](=O)[O-])c(NCc2ccccc2)c2ccccc21` the AC50 [1] was 3.26 µM [falling, partial curve].
In the case of `CC(=O)OCc1nc2ccccc2s1`, the AC50 [1] is reported as 17.8 µM [rising, single point].
In the case of `CNS(=O)(=O)c1ccc(NC(=O)c2nc3nc(C)cc(C(F)F)n3n2)cc1`, the AC50 [1] is reported as 32.6 µM [falling, single point].
With `CCC1CCCCN1C(=S)NC(=O)c1cccs1` (stereo not given) the AC50 [1] was 4.47 µM [rising, partial curve, poor fit] and the AC50 [2] was 35.5 µM [falling, partial curve, poor fit].
With `COc1ccccc1NS(=O)(=O)NC(=O)c1cn(C)c2ccccc12` the AC50 [1] was 28.2 µM [falling, single point].
With `Cc1ccc(/C=N\NC(=O)c2ccc3c(c2)OCO3)o1` the AC50 [1] was 12.6 µM [falling, partial curve, poor fit].
In the case of `Cc1nc(SCC(=O)Nc2cccc(Cl)c2)n[nH]1`, the AC50 [1] is reported as 0.146 µM [rising, full curve, poor fit].

Reference: PubChem BioAssay AID493014 (National Center for Advancing Translational Sciences (NCATS), 2011)
